We go through 13 compounds from patent US9029589B2, “Phenyl alkyl carbamate derivative compound and pharmaceutical composition containing the same” (Bio-Pharm Solutions Co., Ltd., priority 2011, dated 2015).

SMILES strings stand for the structures.

The data set has as its system male mice (ICR). The experiment in a line: Muscle relaxation activity by grip strength (forelimbs). The data set is classed as in vivo. As to conditions: intraperitoneal, 50 mg/kg administered. Here is the method: For testing, male mice (ICR) were purchased from ORIENT BIO INC. (Korea), divided into several groups with 6 mice in each group, and were adapted for 4-5 days. The mice having the weight ranging from 19 g to 26 g were employed for the test. The pharmacological effect of the test compounds on muscle relaxation was evaluated by Rotarod test, grip strength test, and muscular force (wire hang) test. All mice were adapted to the test environment at one hour before starting the tests. The pharmacological effects of all the test compounds were evaluated by administration through peritoneal cavity of the mice (10 ul/g, bw).
A grip strength test using the test animals' forelimbs was performed using an instrument equipped with triangle ring and designed so as to easily grip with the forelimbs of experimental animals, manufactured from Ugo Basile Inc. (Ugo Basile, Model 47106, Italy). The test was conducted before and after administration of the compounds to evaluate the effects thereof. […] The mouse was made to grip the rod with its forelimbs, and its tail was pulled, where the force at which the mouse detached from the rod was recorded. The instrument indicated the force in grams. All of the mice were given 3 opportunities for test, and the 3 highest values among the test opportunities were selected and the mean value was used as the test result. This experimentation was conducted according to the method described in the reference, ‘Nevins et al. (1993) Quantitative grip strength assessment as a means of evaluating muscle relaxation in mice. Psychopharmacol. 110: 92-96’.
The results of muscle relaxation activity of the phenyl alkyl carbamate derivative compounds measured in above Experimental Examples 1 to 3 are shown in following Table 3.
Turning to `COCO[C@H](c1c(Cl)cccc1Cl)[C@@H](C)OC(N)=O` [Example 107, 1-(2,6-dichlorophenyl)-(R)-1-methoxymethoxypropyl-(R)-2-carbamate], the “Grip strength: peak time of effect” value is 1 h.

With `COCO[C@H](c1cccc(I)c1)[C@@H](C)OC(N)=O` [Example 95, 1-(3-iodophenyl)-(R)-1-methoxymethoxypropyl-(R)-2-carbamate], the “Grip strength: peak time of effect” value is 0.5 h.

Turning to `CC[C@H](OC(N)=O)[C@@H](OC)c1ccccc1I` [Example 151, 1-(2-iodophenyl)-(S)-1-methoxybutyl-(S)-2-carbamate], the “Grip strength: peak time of effect” value is 0.5 h.

In the case of `CO[C@@H](c1ccccc1I)[C@@H](OC(N)=O)C(C)C` [Example 159, 1-(2-iodophenyl)-(S)-1-methoxy-3-methyl-butyl-(S)-2-carbamate], the “Grip strength: peak time of effect” value is 0.5 h.

`COCO[C@H](c1ccccc1I)[C@@H](C)OC(N)=O` [Example 91, 1-(2-iodophenyl)-(R)-1-methoxymethoxypropyl-(R)-2-carbamate]: the “Grip strength: peak time of effect” value turned out to be 0.5 h.

Turning to `CO[C@@H](c1ccccc1I)[C@H](C)OC(=O)NC(C)C` [Example 146, 1-(2-iodophenyl)-(S)-1-methoxypropyl-(S)-2-isopropylcarbamate], the “Grip strength: peak time of effect” value turned out to be 0.5 h.

`CCCC[C@H](OC(N)=O)[C@@H](OC(N)=O)c1ccccc1F` [Example 258, 1-(2-fluorophenyl)-(S)-1-carbamoyloxyhexyl-(S)-2-carbamate]: the “Grip strength: peak time of effect” value was determined as 0.5 h.

With `COCO[C@@H](c1ccccc1F)[C@H](C)OC(N)=O` [Example 12, 1-(2-fluorophenyl)-(S)-1-methoxymethoxypropyl-(S)-2-carbamate], the “Grip strength: peak time of effect” value stood at 0.5 h.

For the compound `COCO[C@@H](c1c(Cl)cccc1Cl)[C@H](C)OC(N)=O` [Example 64, 1-(2,6-dichlorophenyl)-(S)-1-methoxymethoxypropyl-(S)-2-carbamate], the “Grip strength: peak time of effect” value was found to be 0.5 h.

For `COCO[C@H](COC(N)=O)c1ccccc1I` [Example 278, 1-(2-iodophenyl)-(S)-1-methoxymethoxyethyl-2-carbamate], the “Grip strength: peak time of effect” value is 0.5 h.

Regarding `CC[C@H](OC(N)=O)[C@@H](OCOC)c1ccccc1I` [Example 28, 1-(2-iodophenyl)-(S)-1-methoxymethoxybutyl-(S)-2-carbamate], the “Grip strength: peak time of effect” value worked out at 1 h.

In the case of `CC(C)[C@H](OC(N)=O)[C@@H](OC(N)=O)c1ccccc1F` [Example 257, 1-(2-fluorophenyl)-(S)-1-carbamoyloxy-3-methyl-butyl-(S)-2-carbamate], the “Grip strength: peak time of effect” value is 0.5 h.

Take `CC(C)[C@H](OC(N)=O)[C@@H](OC(N)=O)c1ccccc1I` [Example 261, 1-(2-iodophenyl)-(S)-1-carbamoyloxy-3-methyl-butyl-(S)-2-carbamate]: the “Grip strength: peak time of effect” value amounted to 0.5 h.
